Results taken from PubChem BioAssay AID330 (DTP/NCI, 2004).
The list is a part of this screen's results and no random one: it gathers tests that were run many times, whatever their T/C, doses with no T/C, and many T/C values between a quarter and a half above the control. Other doses and runs of a compound stand elsewhere. T/C: endpoint of the treated group in % of that of the vehicle group. Some entries give survivors of the animals treated and no T/C: the source holds a T/C of zero for them, seemingly a mark for toxic or unscored doses. Some doses without a T/C left all or most animals alive at the check, yet need not have been tolerated: survival well below the control is almost never listed, so the zero probably covers shortened survival too. Survivors were counted at the toxicity check, usually on the fifth day, unless a day is given; later deaths do not show. Schedule codes are those of the source, taken here to give the interval after Q, in days (D) or hours (H), and the number of doses after X. Some entries were tested several times; the results are listed from low to high. Where survival is the endpoint, the PubChem record calls one and a half times the control and up active, and a quarter to a half above the control has no call in these data; cut-offs in other NCI protocols can differ. Brackets with × say how often a value occurs here. Some T/C values are followed by the survivors on the day toxicity was checked, most often the fifth; without a count, all were alive then.

Test system: P388 leukemia ip, CD2F1 mice, survival T/C
Assay: NCI In Vivo Anticancer Drug Screen. Data for tumor model P388 Leukemia (intraperitoneal) in CD2F1 (CDF1) mice
Details: T/C endpoint: median survival time, higher T/C = longer survival
[1] = dose: 50.0 mg/kg/injection, schedule: Q01DX005 (ip), vehicle: saline
[2] = dose: 100.0 mg/kg/injection, schedule: Q01DX005 (ip), vehicle: saline
[3] = dose: 200.0 mg/kg/injection, schedule: Q01DX005 (ip), vehicle: saline
[4] = dose: 100.0 mg/kg/injection, schedule: Q01DX005 (ip), vehicle: saline with Tween-80
[5] = dose: 200.0 mg/kg/injection, schedule: Q01DX005 (ip), vehicle: saline with Tween-80
[6] = dose: 240.0 mg/kg/injection, schedule: Q01DX005 (ip), vehicle: saline
[7] = dose: 240.0 mg/kg/injection, schedule: Q01DX005 (ip), vehicle: saline with Tween-80
[8] = dose: 100.0 mg/kg/injection, schedule: Q04DX003 (ip), vehicle: water
[9] = dose: 400.0 mg/kg/injection, schedule: Q04DX003 (ip), vehicle: saline with Tween-80
[10] = dose: 50.0 mg/kg/injection, schedule: Q01DX005 (ip), vehicle: saline with Tween-80
[11] = dose: 100.0 mg/kg/injection, schedule: Q01DX009 (ip), vehicle: saline with Tween-80
[12] = dose: 50.0 mg/kg/injection, schedule: Q01DX009 (ip), vehicle: saline

CN1CCC2(C)CC1Cc1ccc(O)cc12 (stereo not drawn)
survivor count [1]: 0 of 6
survivor count [2]: 0 of 6
survivor count [3]: 0 of 6

CC(=O)C1C(=O)C(=O)N(c2ccccc2[N+](=O)[O-])C1=O (stereo not drawn)
survivor count [4]: 3 of 6
survivor count [5]: 0 of 6

CCN(CC)CC(C)(C)C(=O)/C=C/c1ccc(Cl)cc1
survivor count [6]: 0 of 6

CCOC(=O)C1=C(c2ccccc2)Nc2ccccc2[S+]1C (stereo not drawn)
survivor count (dose: 120.0 mg/kg/injection, schedule: Q01DX005 (ip), vehicle: saline): 0 of 6
survivor count [6]: 0 of 6

CCCSCCCCSCCC
survivor count (dose: 400.0 mg/kg/injection, schedule: Q01DX009 (ip), vehicle: saline with Tween-80): 2 of 6

Clc1ccc2nsnc2c1
survivor count (dose: 25.0 mg/kg/injection, schedule: Q01DX009 (ip), vehicle: saline with Tween-80): 4 of 6
survivor count (dose: 400.0 mg/kg/injection, schedule: Q01DX009 (ip), vehicle: Klucel (hydroxypropylcellulose) (HPC)): 2 of 6

COC12C(COC(=O)NCCO)C3=C(C(=O)C(C)=C(N)C3=O)N1CC1NC12 (stereo not drawn)
T/C (dose: 4.5 mg/kg/injection, schedule: Q01DX009 (ip), vehicle: Klucel (hydroxypropylcellulose) (HPC)): 137 % of control
T/C (dose: 9.0 mg/kg/injection, schedule: Q01DX009 (ip), vehicle: Klucel (hydroxypropylcellulose) (HPC)): 146 % of control
T/C (dose: 28.0 mg/kg/injection, schedule: Q01DX009 (ip), vehicle: Klucel (hydroxypropylcellulose) (HPC)): 126 % of control
survivor count (dose: 43.0 mg/kg/injection, schedule: Q01DX009 (ip), vehicle: Klucel (hydroxypropylcellulose) (HPC)): 10 of 10 and 6 of 6
survivor count (dose: 65.0 mg/kg/injection, schedule: Q01DX009 (ip), vehicle: Klucel (hydroxypropylcellulose) (HPC)): 9 of 10
survivor count (dose: 100.0 mg/kg/injection, schedule: Q01DX009 (ip), vehicle: Klucel (hydroxypropylcellulose) (HPC)): 10 of 10

C[CH2][Pb]([CH2]C)([CH2]C)[O]C(=O)COc1ccccc1
T/C (dose: 12.0 mg/kg/injection, schedule: Q04DX003 (ip), vehicle: Klucel (hydroxypropylcellulose) (HPC)): 126 % of control
survivor count (dose: 24.0 mg/kg/injection, schedule: Q04DX003 (ip), vehicle: Klucel (hydroxypropylcellulose) (HPC)): 3 of 6

CCOC(=O)C1=C(NC23CC4CC(CC(C4)C2)C3)OCC1=O
survivor count [7]: 3 of 6

C[n+]1cccc(C2=CCCC2)c1
survivor count (dose: 50.0 mg/kg/injection, schedule: Q04DX003 (ip), vehicle: water): 3 of 6
survivor count (dose: 100.0 mg/kg/injection, schedule: Q04DX003 (ip), vehicle: saline with Tween-80): 0 of 6
survivor count [8]: 0 of 6
survivor count (dose: 200.0 mg/kg/injection, schedule: Q04DX003 (ip), vehicle: saline with Tween-80): 0 of 6
T/C [9]: 141 % of control
survivor count [9]: 0 of 6
survivor count (dose: 600.0 mg/kg/injection, schedule: Q04DX003 (ip), vehicle: saline with Tween-80): 0 of 6

CC(=O)[OH+]c1c(Br)cc(Br)cc1C(=O)[O-].CC(=O)[OH+]c1c(Br)cc(Br)cc1C(=O)[O-].[Cu+2]
survivor count [10]: 3 of 6
survivor count [2]: 0 of 6
survivor count [3]: 0 of 6

C/C(=N\NC(=S)N1CCN(Cc2ccccc2)CC1)c1ccccn1
T/C (dose: 6.25 mg/kg/injection, schedule: Q01DX005 (ip), vehicle: saline with Tween-80): 126 % of control (2×)
T/C (dose: 12.5 mg/kg/injection, schedule: Q01DX005 (ip), vehicle: saline with Tween-80): 137 % of control
survivor count (dose: 25.0 mg/kg/injection, schedule: Q01DX005 (ip), vehicle: saline with Tween-80): 4 of 6 and 5 of 6
survivor count [10]: 2 of 6
survivor count [4]: 0 of 6
survivor count [5]: 0 of 6

NNc1nncc2c1[nH]c1ccccc12
survivor count (dose: 12.5 mg/kg/injection, schedule: Q01DX001 (ip), vehicle: saline with Tween-80): 3 of 5
survivor count (dose: 25.0 mg/kg/injection, schedule: Q01DX001 (ip), vehicle: saline with Tween-80): 3 of 5
survivor count (dose: 50.0 mg/kg/injection, schedule: Q01DX001 (ip), vehicle: saline with Tween-80): 0 of 5
survivor count (dose: 100.0 mg/kg/injection, schedule: Q01DX001 (ip), vehicle: suspension in saline): 3 of 5
survivor count (dose: 200.0 mg/kg/injection, schedule: Q01DX001 (ip), vehicle: suspension in saline): 0 of 5
survivor count (dose: 400.0 mg/kg/injection, schedule: Q01DX001 (ip), vehicle: suspension in saline): 0 of 5

O=C(O)/C=N/NS(=O)(=O)c1cccc([N+](=O)[O-])c1
T/C (dose: 12.5 mg/kg/injection, schedule: Q01DX009 (ip), vehicle: other): 138 % of control
T/C (dose: 50.0 mg/kg/injection, schedule: Q01DX009 (ip), vehicle: other): 131 and 134 % of control
T/C (dose: 100.0 mg/kg/injection, schedule: Q01DX009 (ip), vehicle: other): 130, 137, 141 % of control
survivor count (dose: 200.0 mg/kg/injection, schedule: Q01DX009 (ip), vehicle: other): 3 of 6 and 5 of 6
survivor count (dose: 400.0 mg/kg/injection, schedule: Q01DX009 (ip), vehicle: other): 3 of 6 and 4 of 6

CCOC(=O)N1C=CC2(C=C1)CCCCC2
survivor count (dose: 100.0 mg/kg/injection, schedule: Q04DX003 (ip), vehicle: Klucel (hydroxypropylcellulose) (HPC)): 4 of 6

Cc1ccc(Cl)cc1S(=O)(=O)Cl
survivor count (dose: 50.0 mg/kg/injection, schedule: Q01DX009 (ip), vehicle: distilled water + Tween-80): 2 of 6
survivor count (dose: 100.0 mg/kg/injection, schedule: Q01DX009 (ip), vehicle: distilled water + Tween-80): 0 of 6
survivor count (dose: 200.0 mg/kg/injection, schedule: Q01DX009 (ip), vehicle: distilled water + Tween-80): 0 of 6
survivor count (dose: 400.0 mg/kg/injection, schedule: Q01DX009 (ip), vehicle: distilled water + Tween-80): 0 of 6

Cc1nc2cc3c(cc2n2cccc12)oc1ccccc13
survivor count (dose: 200.0 mg/kg/injection, schedule: Q01DX005 (ip), vehicle: Klucel (hydroxypropylcellulose) (HPC)): 1 of 5

c1cc(C2N3CCCN2CC3)ccn1 (stereo not drawn)
survivor count (dose: 6.25 mg/kg/injection, schedule: Q01DX009 (ip), vehicle: saline): 6 of 6

Oc1ccccc1C=NCCCN=Cc1ccccc1O
survivor count [11]: 6 of 6

O=NN(CCCl)C(=O)NC1CCN(Cc2ccccc2)CC1
T/C (dose: 6.25 mg/kg/injection, schedule: Q04DX003 (ip), vehicle: other): 137 % of control
T/C (dose: 6.25 mg/kg/injection, schedule: Q04DX003 (ip), vehicle: water): 143 % of control
survivor count [8]: 6 of 6
survivor count (dose: 200.0 mg/kg/injection, schedule: Q04DX003 (ip), vehicle: other): 6 of 6

O=C1CSCc2nc3ccccc3n21
survivor count [12]: 6 of 6

COC(=O)C1(OC(C)=O)C(=O)NC2=C1C(=O)c1ccccc1C2=O (stereo not drawn)
survivor count [4]: 3 of 6
survivor count [5]: 0 of 6

COc1ccccc1/C(=N/[N+](C)(C)C)C(C)C
survivor count (dose: 50.0 mg/kg/injection, schedule: Q04DX002 (ip), vehicle: saline): 5 of 6
survivor count (dose: 100.0 mg/kg/injection, schedule: Q04DX002 (ip), vehicle: saline): 0 of 6
survivor count (dose: 200.0 mg/kg/injection, schedule: Q04DX002 (ip), vehicle: saline): 0 of 6

CC(=O)c1c(O)cc2c(c1O)C1CC(C)(CCC1=C(C)C)O2 (stereo not drawn)
survivor count [12]: 6 of 6

CN1CCCCC1Cc1ccccc1 (stereo not drawn)
survivor count [1]: 1 of 6
survivor count [2]: 0 of 6
survivor count [3]: 0 of 6

ClCCCSSCCCCl
T/C (dose: 120.0 mg/kg/injection, schedule: Q01DX005 (ip), vehicle: saline with Tween-80): 137 % of control
T/C [7]: 128 % of control [5 of 6 alive]

N#CC(NCc1ccccc1)c1ccc2c(c1)OCO2 (stereo not drawn)
survivor count (dose: 50.0 mg/kg/injection, schedule: Q01DX009 (ip), vehicle: saline with Tween-80): 6 of 6
survivor count [11]: 5 of 6
